Laboratory results as given in PMC12800066.
No constants are given. Whether binding was seen depends on the method and setting. In cells and extracts the contact can be indirect. A yes stands for co-enrichment or nearness to the bait. Other partners may have been found.

By UniProt entry, the sequences of proteins in these tests, tags left out.
UniProt Q99JI6: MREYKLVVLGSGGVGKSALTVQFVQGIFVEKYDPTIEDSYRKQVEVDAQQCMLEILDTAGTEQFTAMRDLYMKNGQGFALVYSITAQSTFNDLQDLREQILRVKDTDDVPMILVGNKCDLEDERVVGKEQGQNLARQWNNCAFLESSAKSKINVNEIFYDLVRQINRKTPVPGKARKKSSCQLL

Biological target: T1, DCSTAMP (mouse, wild type) (mouse (endogenous in mBMMs)) (UniProt Q7TNJ0)
T1 sequence: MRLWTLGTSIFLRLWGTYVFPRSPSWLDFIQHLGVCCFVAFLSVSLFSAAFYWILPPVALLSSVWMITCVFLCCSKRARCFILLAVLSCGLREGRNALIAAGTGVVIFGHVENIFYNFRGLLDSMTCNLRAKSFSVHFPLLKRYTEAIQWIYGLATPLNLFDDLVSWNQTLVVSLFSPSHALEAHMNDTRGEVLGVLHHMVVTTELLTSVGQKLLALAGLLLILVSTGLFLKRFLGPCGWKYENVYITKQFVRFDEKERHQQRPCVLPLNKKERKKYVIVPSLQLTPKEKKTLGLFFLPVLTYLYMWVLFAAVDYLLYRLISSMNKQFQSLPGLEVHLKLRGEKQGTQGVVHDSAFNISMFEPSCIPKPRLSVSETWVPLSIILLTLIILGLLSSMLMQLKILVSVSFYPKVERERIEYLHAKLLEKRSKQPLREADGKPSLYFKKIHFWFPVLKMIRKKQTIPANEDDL
Assay: affinity purification with mass spectrometry; Co-IP with DCSTAMP antibody from WT and Dcstamp-tail−/− lysates (mBMMs), proteins identified by mass spectrometry

How did the binding turn out when RAP1B (from UniProt Q99JI6 1-184) was run?
The binding was “binds”.
